Measured values taken from paper PMC9200067 (Clinical and Translational Science, 2022).

The chains behind the UniProt entries cited, without tags or fusion partners. Where a name states a change or a piece, a line headed by the entry shows the natural chain unless it says otherwise.
UniProt P34969, whole entry: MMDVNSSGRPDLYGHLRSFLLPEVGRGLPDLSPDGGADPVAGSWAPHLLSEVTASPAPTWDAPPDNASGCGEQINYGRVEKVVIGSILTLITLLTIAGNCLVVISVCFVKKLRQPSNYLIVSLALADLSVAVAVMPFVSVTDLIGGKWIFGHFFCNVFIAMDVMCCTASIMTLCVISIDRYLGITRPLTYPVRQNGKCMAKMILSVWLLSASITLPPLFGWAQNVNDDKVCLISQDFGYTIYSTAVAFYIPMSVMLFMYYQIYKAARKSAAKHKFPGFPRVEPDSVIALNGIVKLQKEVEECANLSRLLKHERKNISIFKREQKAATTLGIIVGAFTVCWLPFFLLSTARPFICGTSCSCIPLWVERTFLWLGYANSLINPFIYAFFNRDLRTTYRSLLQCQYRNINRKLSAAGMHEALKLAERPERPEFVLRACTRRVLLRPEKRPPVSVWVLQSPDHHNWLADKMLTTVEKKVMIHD
UniProt P28221: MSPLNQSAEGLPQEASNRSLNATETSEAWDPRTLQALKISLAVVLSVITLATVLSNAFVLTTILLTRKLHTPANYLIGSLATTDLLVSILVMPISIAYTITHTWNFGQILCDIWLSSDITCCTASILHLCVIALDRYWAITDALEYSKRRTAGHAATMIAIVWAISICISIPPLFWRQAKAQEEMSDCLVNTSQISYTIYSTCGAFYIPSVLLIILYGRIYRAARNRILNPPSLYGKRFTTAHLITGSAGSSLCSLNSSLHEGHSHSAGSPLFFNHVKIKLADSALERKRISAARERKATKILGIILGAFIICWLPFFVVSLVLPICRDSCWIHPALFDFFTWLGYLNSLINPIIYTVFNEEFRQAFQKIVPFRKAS

Key:
[1] = molecular target: 5-HT7 (Homo sapiens, UniProt P34969); test: competitive radioligand binding, recombinant cells; assay type: cell-based
[2] = molecular target: 5-HT1D (Homo sapiens, UniProt P28221); test: competitive radioligand binding, recombinant cells; assay type: cell-based

Q: Which results are given for O=c1n(CCCN2CCN(c3cccc(Cl)c3)CC2)nc2ccccn12 [trazodone]?
A: Ki [1]: 0.406 µM; Ki [2]: 0.026 µM
